# Experimental data from US20210214435A1.
# Results are given in words; binding and its absence hold for the method and conditions named. Some results given as binding are weak or reduced against the parent protein; the word gives no strength.
# Columns and labels:
# [1] = molecular target: human GPVI-1A extracellular domain fused at its C-terminus to human IgG1 Fc (GPVI-Fc) (human); test: ELISA, coated GPVI-Fc
# [2] = molecular target: mouse GPVI extracellular domain fused at its C-terminus to human IgG1 Fc (GPVI-Fc) (mouse; human); test: ELISA, coated GPVI-Fc
# [3] = molecular target: human GPVI-1B extracellular domain fused at its C-terminus to human IgG1 Fc (GPVI-Fc) (human); test: ELISA, coated GPVI-Fc
# [4] = molecular target: human GPVI-1A extracellular domain fused at its C-terminus to human IgG1 Fc (GPVI-Fc) (human); test: Solution equilibrium titration (SET)
# [5] = molecular target: mouse GPVI extracellular domain fused at its C-terminus to human IgG1 Fc (GPVI-Fc) (mouse; human); test: Solution equilibrium titration (SET)
# [6] = molecular target: human GPVI-1A extracellular domain fused at its C-terminus to human IgG1 Fc (GPVI-Fc) (human); test: ELISA, coated GPVI-Fc, Fab titrated
# [7] = molecular target: mouse GPVI extracellular domain fused at its C-terminus to human IgG1 Fc (GPVI-Fc) (mouse; human); test: ELISA, coated GPVI-Fc, Fab titrated
# [8] = molecular target: human GPVI-1B extracellular domain fused at its C-terminus to human IgG1 Fc (GPVI-Fc) (human); test: ELISA, coated GPVI-Fc, Fab titrated
Binder,binding [1],binding [2],binding [3],binding [4],binding [5],binding [6],binding [7],binding [8]
"Fab #2 comprising a modified heavy chain constant region (Fab, V domains shown) VH: QVQLVESGGGLVKPGGSLRLSCAASGFSFSDHYMSWIRQAPGKGLEWVSSVGSEGKFIDYAASVKGRFTISRDNAKNSLYLQMNSLRAEDTAVYYCARHYREFRWHYYYFDYWGQGTLVTVSS VL: QSVLTQPPSVSGAPGQRVTISCTGSSSNIGAGYDVHWYQQLPGTAPKLLIYGNSNRPSGVPDRFSGSKSGTSASLAITGLQAEDEADYYCQSHDLGAHVWVFGGGTKLTVLG",binds,binds,binds,binds,binds,binds,binds,binds
"Fab #1 comprising a modified heavy chain constant region (Fab, V domains shown) VH: QVQLVQSGAEVKKPGASVKVSCKASGYTFTSHYMHWVRQAPGQGLEWMGLIEPSEGETEYAQRFQGRVTMTRDTSTSTVYMELSSLRSEDTAVYYCARDSSRSYPLGFDIWGQGTLVTVSS VL: QSVLTQPPSVSAAPGQKVTISCSGSSSNIGNNYVSWYQQLPGTAPKLLIYDNNKRPSGIPDRFSGSKSGTSATLGITGLQTEDEADYYCAAWDFRSSRWVFGGGTKLTVLG",binds,binds,binds,binds,binds,binds,binds,binds

# Results, then the binder that gave them:
binding [1],binding [2],binding [3],binding [4],binding [5],binding [6],binding [7],binding [8],Binder
binds,binds,binds,binds,binds,binds,binds,binds,"Fab #3 comprising a modified heavy chain constant region (Fab, V domains shown) VH: QVQLVESGGGLVKPGGSLRLSCAASGFSFGDYYVSWIRQAPGKGLEWVSAIGGSGSAVQYAESVKGRFTISRDNAKNSLYLQMNSLRAEDTAVYYCARHYREFRWHYYYFDYWGQGTLVTVSS VL: QSVLTQPPSVSGAPGQRVTISCTGSSSNIGAGYDVHWYQQLPGTAPKLLIYGNSNRPSGVPDRFSGSKSGTSASLAITGLQAEDEADYYCQSHDLGAHVWVFGGGTKLTVLG"
binds,binds,binds,binds,binds,binds,binds,binds,"Fab #4 comprising a modified heavy chain constant region (Fab, V domains shown) VH: QVQLVQSGAEVKKPGASVKVSCKASGGAFTSSYMHWVRQAPGQGLEWMGIIEPTGASTLYAQRFQGRVTMTRDTSTSTVYMELSSLRSEDTAVYYCARTGIALPLGFDLWGQGTLVTVSS VL: QSVLTQPPSVSAAPGQKVTISCSGSSSNIGNNYVSWYQQLPGTAPKLLIYDNNKRPSGIPDRFSGSKSGTSATLGITGLQTEDEADYYCAAWSTRFRWVFGGGTKLTVLG"
